# Primary screen of a compound library

Source: ChEMBL document CHEMBL3988442, “University of Dundee, Small-Polar-MMV Screening Library” (2021).

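Viability assay of Plasmodium falciparum sporozoites; the read-out is not stated. The concentration is filed as 10 mM, unlikely as a test dose, so the dose is not known. Direction is inferred from retests: higher values go with lower viability. Strong results were mostly tested again. Size under these conditions: about 34,000 compounds, about 280 of them at 50% or above in at least one test.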

Each number is a percent effect as filed.
The record does not define 0% and 100%; most values in the screen are far below 50% and negative numbers occur (in some assays of this library far below -100).
This is an unselected part of the compounds tested.
Two or more numbers in one place are separate tests of the same structure; such repeats can differ widely.

Result for O=S(=O)(c1ccccc1)N1CCC[C@]2(C[C@H](OCC3CC3)CO2)C1 was -0.3567%.
Result for C[C@@H](CO)NC(=O)c1ccc2nc(NS(C)(=O)=O)sc2c1 was 5.586%.
Result for CCc1nc(NCC(=O)N2CCOCC2)c2c(n1)c(C)nn2CC was 0%.
Result for [H][C@]12CC[C@]([H])(CN(Cc3cccnc3N)C1)N(CC=C(C)C)C2=O was -8.511%.
Result for CN(C)CCNC(=O)C1Cc2nc(-c3ccsc3)sc2N1CC1CC1.O=C(O)C(F)(F)F (stereo unspecified) was 28.5% and 5.989% and -0.7959%.
Result for CN(Cc1ccsc1)C(=O)Nc1ccc(N(C)C)nc1 was 7.328%.
Result for CCc1nc(-c2ccc(NC(=O)N3CCCC3)cc2)no1 was -9.472% and -40.41% and 74.39%.
Result for CN(CCn1cncc1-c1cnc(N2CCOCC2)nc1)C1CCCC1 was 0.385%.
Result for Cl.Nc1ncnc2nc(C3CCCCN3)ccc12 (stereo unspecified) was 6.801%.
Result for O=C(O)C(F)(F)F.[H][C@@]12CCN(CC3CC3)[C@@]1([H])CCN2S(=O)(=O)c1cccs1 was -6.843%.
Result for CCN1CCc2cc(-c3cncn3CCNC3CCS(=O)(=O)C3)ccc21.Cl (stereo unspecified) was -3.645%.
Result for Cc1cccc(CN2C(=O)CCC23CCN(C(=O)N2CCCC2)CC3)n1.O=C(O)C(F)(F)F was 0.722%.
Result for [H][C@]12CC[C@]([H])(CN(C(=O)C3CCC3)C1)N(C(=O)c1cccc(N(C)C)c1)C2 was 2.719%.
Result for Cc1cc(C)n(CC2CN(CCC(=O)NC3CCCCC3)CCO2)n1 (stereo unspecified) was 10.34%.
Result for CC(=O)N1CCC(c2ccnc(Nc3ccc(C)cn3)n2)C1 (stereo unspecified) was -6.604% and -1.275% and 4.318%.
Result for CCC(C)NC(=O)CCNC(=O)Nc1ccc(-n2cncn2)c(F)c1 (stereo unspecified) was 5.811%.
Result for Cn1cccc1-c1cc(C(=O)N2CCCC2c2ccc(C(N)=O)s2)[nH]n1 (stereo unspecified) was -19.74%.
Result for CCc1nccc(CN2CCC(CNC(=O)Nc3ccccc3)C2)n1 (stereo unspecified) was 3.947%.
Result for COc1ccc(CCN2CCC(N3CCN(C)C3=O)CC2)cc1 was -7.359%.
Result for Cc1nc(C)n(CC2CCCN(CC(=O)N3CCCC3)C2)n1 (stereo unspecified) was 4.184%.
Result for CC(NC(=O)N1CCC(n2cncn2)CC1)c1ccc(F)cc1F (stereo unspecified) was -4.194%.
Result for CC(=O)c1cc(C(=O)N2Cc3ccccc3OC3(CCOCC3)C2)cs1 was 6.024%.
Result for Cc1ncncc1C(=O)N1CCCC(c2[nH]ncc2S(C)(=O)=O)C1 (stereo unspecified) was 5.021%.
Result for CCc1ccc(-n2nnc(C(=O)O)c2-c2ccncc2)cc1 was 0.4541%.
Result for CC(NC(=O)NCCn1ccnc1)c1ccc2c(c1)OCCO2 (stereo unspecified) was -2.596%.
Result for CCn1ccnc1CN1CCN(Cc2ccccn2)CC1C (stereo unspecified) was -6.764%.
Result for CCN(Cc1cccc(Cl)c1)Cn1nc(C)c2c(C)onc2c1=O was -7.84%.
Result for O=C(c1cc(C2CCCN(Cc3ccccn3)C2)no1)N1CCCC1 (stereo unspecified) was -4.269%.
Result for Cc1ccsc1CN(CCN(C)C)Cc1ccccn1 was -6.719%.
Result for O=C(O)C(F)(F)F.O=C(O)C(F)(F)F.[H][C@]12CCN(C(=O)c3ccncc3)C[C@@]1([H])OCCN(C1CCOCC1)C2 was -3.713%.
Result for COC(=O)CC(C)(C)CC(=O)N1CCC(C(F)(F)F)CC1 was -8.81%.
Result for c1cnn(CC2CN(Cc3csc(-c4ccsc4)n3)CCO2)c1 (stereo unspecified) was -1.551% and 16.77%.
Result for CC(NC1(CNC(=O)CC(C)(C)C)CCOCC1)c1ccccc1 (stereo unspecified) was -13.38%.
Result for CN(C)CCN1CCCC12CCN(C(=O)c1ccoc1)CC2.O=C(O)C(F)(F)F.O=C(O)C(F)(F)F was -18.97% and -1.986% and -17.96%.
Result for O=C(CCCc1nnc(-c2ccccc2)o1)N1CCN(CCO)CC1 was -0.08224%.
Result for CCN1CCC(NC(=O)CN2CC(n3nc(C)cc3C)C2)CC1 was -6.244% and 40.24% and -11.8%.
Result for O=C(O)C(F)(F)F.O=C(c1ccccc1F)N1CCCn2c(CN3CCCCC3)nnc2C1 was -6.684%.
Result for Cc1nc(O)cc(C2(C)CCCNC2)n1.Cl (stereo unspecified) was 2.823%.
Result for O=C(O)C(F)(F)F.[H][C@@]12CCCO[C@]1([H])[C@@H](OC)CN2C(=O)c1ccccn1 was -9.829%.
Result for Cc1cc(C[C@@H]2COC[C@H]2NCc2ccc(C)c(C)c2)on1.O=C(O)CC(O)(CC(=O)O)C(=O)O was -26.82% and -25.93% and 36.57%.
Result for Cc1oc(C)c(C(=O)NCc2ccccn2)c1C was 2.968%.
Result for CN1CCC(c2nnc(CN3CCCC3)n2C2CC2)CC1 was -15.27%.
Result for CCN(CC)Cc1cc(=O)n2c(n1)CN(C(=O)c1ccc[nH]1)CCC2 was 4.051%.
Result for Cc1nc2nc(C)c3c(=O)n(-c4ccn[nH]4)ccc3n2n1 was -11.19%.
Result for COc1ccc(Cl)cc1CS(=O)(=O)Cc1nc(C)no1 was 10.41%.
Result for Nc1nc(N)c2c(n1)OC1(CCN(C(=O)CC3CCCCN3)CC1)C2 (stereo unspecified) was 3.367%.
Result for Cc1cc(-c2cccc(C(=O)O)c2)nc(C2CCN(C(C)C)CC2)n1 was 2.199%.
Result for CC(C)C(=O)N(C)Cc1nc(N2CCCC2)ncc1-c1ccncc1.Cl was 22.61%.
Result for O=C(CC1CC1)N1CCC2(COCc3cnc(N4CCOCC4)nc32)C1 (stereo unspecified) was -3.866%.
Result for O=C(CCn1cccn1)N1CCC(c2nnc(-c3ccsc3)o2)CC1 was 6.545%.
Result for COc1cccc(Cl)c1C(C(=O)O)N1CCC(Cn2cccn2)CC1 (stereo unspecified) was -18.04% and -20.48%.
Result for Cc1cccc(C(=O)NCc2cccnc2N(C)C)n1 was 8.108%.
Result for CC(C)N1CCc2c(C(=O)N3CCOCC3)nn(C)c2C1.O=C(O)C(F)(F)F was 10.13%.